Results are given in words; binding and its absence hold for the method and conditions named. Tags and fused reporters may be left off the sequences shown.
Biological target: T1, Drosophila Sak/PLK4 Polo-Box-3 domain (aa 657-745), tag cleaved (Drosophila melanogaster) (UniProt O97143)
T1 sequence: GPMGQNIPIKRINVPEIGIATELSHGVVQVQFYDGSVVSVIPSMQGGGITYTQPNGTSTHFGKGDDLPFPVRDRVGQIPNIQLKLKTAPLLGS
Experiment: SEC; analytical gel filtration, S75 10/300; untagged PB3 and N-terminally His-lipoyl tagged CCD mixed 30 min before injection, 500 µM each; 50 mM Tris pH 7.5, 150 mM NaCl, 2 mM DTT, 1 ml/min; both purified

Question: NKSDLAALVSLVESVRHEQQQLRNLCEMILEQQQRAK (domain or fragment, UniProt Q9XZ31 193-229) [His-lipoyl-tagged Drosophila Ana2 coiled-coil domain (aa 193-229)] was tested. Which binding did it give?
Answer: no binding (tested: 500 µM)
